No constants are given. Whether binding was seen depends on the method and setting. Some binding calls cover weakened binding; strength is not graded here.
Legend:
[1] = target: T1, Rad4 Δβ-hairpin2, crosslinkable construct <SC40> (residues 101–632, lacking 515–527, V131C/C132S), thrombin-digested (yeast) (UniProt P14736); experiment: crystal structure; Rad4 mutant–Rad23 complex disulfide-tethered to CCC/GGG matched DNA; hanging-drop vapor diffusion at 4°C, 50 mM BTP-HCl, 150–180 mM NaCl, 5–15% isopropanol, pH 6.8; molecular replacement with the protein portion of 4YIR; both purified
T1 sequence (chain, Cys131 disulfide-crosslinked to the dG* of the CCC/GGG DNA): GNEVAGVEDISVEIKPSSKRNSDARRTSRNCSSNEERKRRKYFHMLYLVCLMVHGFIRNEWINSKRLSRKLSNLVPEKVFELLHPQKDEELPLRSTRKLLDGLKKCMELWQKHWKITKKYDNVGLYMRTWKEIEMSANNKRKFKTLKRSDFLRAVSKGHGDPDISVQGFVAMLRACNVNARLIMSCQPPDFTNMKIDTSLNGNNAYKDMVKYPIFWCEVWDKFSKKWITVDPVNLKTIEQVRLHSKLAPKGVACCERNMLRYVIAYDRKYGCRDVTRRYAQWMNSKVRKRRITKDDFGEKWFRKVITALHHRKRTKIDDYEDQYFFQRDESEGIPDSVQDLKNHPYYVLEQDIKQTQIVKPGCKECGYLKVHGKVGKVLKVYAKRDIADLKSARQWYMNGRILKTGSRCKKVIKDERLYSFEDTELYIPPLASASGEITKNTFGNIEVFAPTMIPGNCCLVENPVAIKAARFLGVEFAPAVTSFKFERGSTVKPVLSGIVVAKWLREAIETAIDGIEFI

[2] = target: T2, Rad4 Δβ-hairpin3, crosslinkable construct <SC41b> (residues 101–632, lacking 599–605, V131C/C132S), thrombin-digested (yeast) (UniProt P14736); experiment: as above
T2 sequence (chain, Cys131 disulfide-crosslinked to the dG* of the CCC/GGG DNA): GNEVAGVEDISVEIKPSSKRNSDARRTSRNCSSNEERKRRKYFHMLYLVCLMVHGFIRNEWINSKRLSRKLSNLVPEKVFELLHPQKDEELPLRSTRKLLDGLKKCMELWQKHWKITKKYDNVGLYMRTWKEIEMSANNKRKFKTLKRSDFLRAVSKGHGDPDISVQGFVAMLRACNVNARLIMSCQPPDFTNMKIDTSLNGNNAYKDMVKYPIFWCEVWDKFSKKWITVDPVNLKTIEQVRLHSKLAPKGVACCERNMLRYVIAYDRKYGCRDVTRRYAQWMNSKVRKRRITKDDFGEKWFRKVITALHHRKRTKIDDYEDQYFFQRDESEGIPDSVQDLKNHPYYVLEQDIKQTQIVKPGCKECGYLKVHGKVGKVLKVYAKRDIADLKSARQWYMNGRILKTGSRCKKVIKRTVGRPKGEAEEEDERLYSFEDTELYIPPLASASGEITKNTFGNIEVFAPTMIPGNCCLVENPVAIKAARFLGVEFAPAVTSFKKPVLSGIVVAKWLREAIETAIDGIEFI

B1: Rad23 construct after thrombin digestion (Rad4-binding and UBA2 domains; UBL domain removed) (domain or fragment, UniProt P32628 230-398)
chain: GNASSGALGTTGGATDAAQGGPPGSIGLTVEDLLSLRQVVSGNPEALAPLLENISARYPQLREHIMANPEVFVSMLLEAVGDNMQDVMEGADDMVEGEDIEVTGEAAAAGLGQGEGEGSFQVDYTPEDDQAISRLCELGFERDLVIQVYFACDKNEEAAANILFSDHAD
Question: With B1 as the binder, how does the binding [1] read?
Answer: binds

Question: And the binding [2]?
Answer: binds
